Values from PubChem BioAssay AID1259308 (NCATS, 2017).
Screen: 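Candidate targets for better recombinant protein yield in mammalian cells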 (primary screen). Cell system: human HEK293 embryonic kidney cells stably expressing firefly luciferase (HEK-CMV-Luc2-Hygro). Reagents: single siRNA against human genes, 0.8 pmol siRNA per well. Timing: 72 h. Measurement: 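Reporter luminescence and viable-cell signal on separate replicate plates, given as percent of non-targeting control and median/MAD z-scores, plus per-cell luciferase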. Reading the numbers: total luciferase, z-score: higher = more reporter protein produced. Call rule: 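Active when the median/MAD z-score for overall luciferase is greater than 3; a gene was taken forward for validation with new siRNAs if at least two of its three siRNAs passed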. Calls: active = raised luciferase; inactive = no rise.
In all, the deposit lists about 59,000 reagents; this is an unselected part. Of all reagents, about 1,510 (2.6%) are marked active. 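Calls use total luciferase alone and ignore viability, so some active siRNAs may act by altering cell number.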 The numbers tell different reagents against one gene apart. Not all columns of the deposit are shown.

no.	target gene	reagent	total luciferase, z-score	outcome
1	GINS3	1	-0.217	inactive
2	GINS3	2	-1.27	inactive
3	GINS3	3	-0.293	inactive
4	CCL22	1	-0.385	inactive
5	CCL22	2	-0.984	inactive
6	CCL22	3	-0.635	inactive
7	WDR47	1	-0.686	inactive
8	WDR47	2	1.28	inactive
9	WDR47	3	0.139	inactive
10	NAP1L5	1	2.46	inactive
11	NAP1L5	2	-0.535	inactive
12	NAP1L5	3	-0.298	inactive
13	GNB5	1	0.0819	inactive
14	GNB5	2	1.73	inactive
15	GNB5	3	4.25	active
16	RPS13	1	-2.94	inactive
17	RPS13	2	-2.66	inactive
18	RPS13	3	-0.967	inactive
19	ATP5MC1	1	1.81	inactive
20	ATP5MC1	2	0.947	inactive
21	ATP5MC1	3	-1.21	inactive
22	MARK4	1	0.721	inactive
23	MARK4	2	0.338	inactive
24	MARK4	3	0.944	inactive
25	GPM6A	1	0.236	inactive
26	GPM6A	2	0.0886	inactive
27	GPM6A	3	0.269	inactive
28	ZNF211	1	0.184	inactive
29	ZNF211	2	0.89	inactive
30	ZNF211	3	-1.11	inactive
31	PDPR	1	-0.164	inactive
32	PDPR	2	-0.422	inactive
33	PDPR	3	-1.37	inactive
34	CD177	1	0.425	inactive
35	CD177	2	-0.196	inactive
36	CD177	3	0.813	inactive
37	KLF12	1	-0.975	inactive
38	KLF12	2	-1.67	inactive
39	KLF12	3	-0.133	inactive
40	CFAP36	1	-0.871	inactive
41	CFAP36	2	-0.351	inactive
42	CFAP36	3	-0.528	inactive
43	GAREM2	1	-0.695	inactive
44	GAREM2	2	-0.796	inactive
45	GAREM2	3	-0.0796	inactive
46	LRAT	1	-0.0619	inactive
47	LRAT	2	-1.13	inactive
48	LRAT	3	-0.374	inactive
49	FAM20C	1	0.0916	inactive
50	FAM20C	2	1.56	inactive
51	FAM20C	3	-1.7	inactive
52	PTMAP11	1	-0.492	inactive
53	PTMAP11	2	-0.0629	inactive
54	PTMAP11	3	-0.264	inactive
55	PUM3	1	-0.479	inactive
56	PUM3	2	0.854	inactive
57	PUM3	3	1.56	inactive

Copied from the list:
PUM3 #1, outcome: inactive
Result for PUM3 #3 in “total luciferase, z-score”: 1.56
Under “total luciferase, z-score”, GPM6A #1 has 0.236
